PMC3861528
No constants are given. Whether binding was seen depends on the method and setting. Binding seen in cells or lysates may run through a third protein. Some entries that bind do so weakly or less than the wild type.

Chains of the proteins cited; added tags and fusions are not shown.
UniProt Q08775: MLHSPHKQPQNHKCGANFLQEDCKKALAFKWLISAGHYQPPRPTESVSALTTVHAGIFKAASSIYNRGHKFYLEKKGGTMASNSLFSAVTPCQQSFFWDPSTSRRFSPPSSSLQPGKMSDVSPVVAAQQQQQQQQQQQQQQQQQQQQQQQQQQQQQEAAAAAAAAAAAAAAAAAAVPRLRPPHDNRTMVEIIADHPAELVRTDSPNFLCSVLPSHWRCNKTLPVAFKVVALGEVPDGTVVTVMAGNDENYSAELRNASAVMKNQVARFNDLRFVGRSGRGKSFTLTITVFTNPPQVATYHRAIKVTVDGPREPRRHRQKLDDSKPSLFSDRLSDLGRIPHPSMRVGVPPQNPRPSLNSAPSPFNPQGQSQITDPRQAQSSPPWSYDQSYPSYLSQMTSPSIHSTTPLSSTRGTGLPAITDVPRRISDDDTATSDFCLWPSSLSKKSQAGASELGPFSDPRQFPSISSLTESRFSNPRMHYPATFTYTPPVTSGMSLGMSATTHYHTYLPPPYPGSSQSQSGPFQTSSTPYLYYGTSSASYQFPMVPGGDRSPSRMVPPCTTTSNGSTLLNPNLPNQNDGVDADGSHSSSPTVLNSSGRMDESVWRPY

Assays:
[1] = target: T1, Vitamin D receptor (human (endogenous in HEK293)) (UniProt P11473); test: co-IP; HEK293 cells transfected with pCS4-3Flag-Runx2 and treated with 10^-7 mol/l 1,25(OH)2D3 for 24 hours; nuclear extracts (130 ug) precipitated with mouse monoclonal anti-Vdr antibody and protein G Sepharose at 4 C; blot with anti-Flag
T1 sequence: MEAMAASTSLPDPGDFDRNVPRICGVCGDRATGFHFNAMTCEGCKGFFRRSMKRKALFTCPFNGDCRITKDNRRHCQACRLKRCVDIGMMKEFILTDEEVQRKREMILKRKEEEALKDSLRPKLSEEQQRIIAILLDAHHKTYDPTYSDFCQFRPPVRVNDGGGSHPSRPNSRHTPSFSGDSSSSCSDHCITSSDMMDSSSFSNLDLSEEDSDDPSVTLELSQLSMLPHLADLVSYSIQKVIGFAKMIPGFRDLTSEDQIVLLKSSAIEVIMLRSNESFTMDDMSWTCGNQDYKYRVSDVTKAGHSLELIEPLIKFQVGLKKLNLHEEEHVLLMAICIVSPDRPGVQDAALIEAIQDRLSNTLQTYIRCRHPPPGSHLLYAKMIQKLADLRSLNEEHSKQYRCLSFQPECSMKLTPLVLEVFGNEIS

[2] = target: T1, Vitamin D receptor (human (endogenous in HEK293)); test: co-IP; HEK293 cells transfected with pCS4-3Flag-Runx2, cultured without 1,25(OH)2D3; nuclear extracts precipitated with mouse monoclonal anti-Vdr antibody and protein G Sepharose at 4 C; blot with anti-Flag

Substance: 3Flag-Runx2 (runt-related transcription factor 2) (from UniProt Q08775 1-607)
- binding [1]: binds
- binding [2]: no binding (condition: cells not treated with 1,25(OH)2D3)
